Results are given in words; binding and its absence hold for the method and conditions named. Binding seen in cells or lysates may run through a third protein. Some entries that bind do so weakly or less than the wild type. For some assays here: Tags and fused reporters may be left off the sequences shown. Each block holds one molecule with its values, some of them ahead of it.
Tests used:
[1] = molecular target: HA-ATR (1-400 aa), the ATRIP interacting domain of ATR (human) (UniProt Q13535); assay: co-IP; 293T cells co-transfected with HA- and Myc-tagged proteins, lysed in NETN buffer (150 mM NaCl, 2 mM EDTA, 50 mM Tris-Cl, 0.2% NP-40); immunoprecipitation with HA antibody (Figure 5A, B) or Myc antibody (Figure 5C, D) on protein A sepharose, immunoblot of the other tag
[2] = molecular target: T1, HA-ATRIP (ATR-interacting protein) (human) (UniProt Q8WXE1); assay: as above
T1 sequence: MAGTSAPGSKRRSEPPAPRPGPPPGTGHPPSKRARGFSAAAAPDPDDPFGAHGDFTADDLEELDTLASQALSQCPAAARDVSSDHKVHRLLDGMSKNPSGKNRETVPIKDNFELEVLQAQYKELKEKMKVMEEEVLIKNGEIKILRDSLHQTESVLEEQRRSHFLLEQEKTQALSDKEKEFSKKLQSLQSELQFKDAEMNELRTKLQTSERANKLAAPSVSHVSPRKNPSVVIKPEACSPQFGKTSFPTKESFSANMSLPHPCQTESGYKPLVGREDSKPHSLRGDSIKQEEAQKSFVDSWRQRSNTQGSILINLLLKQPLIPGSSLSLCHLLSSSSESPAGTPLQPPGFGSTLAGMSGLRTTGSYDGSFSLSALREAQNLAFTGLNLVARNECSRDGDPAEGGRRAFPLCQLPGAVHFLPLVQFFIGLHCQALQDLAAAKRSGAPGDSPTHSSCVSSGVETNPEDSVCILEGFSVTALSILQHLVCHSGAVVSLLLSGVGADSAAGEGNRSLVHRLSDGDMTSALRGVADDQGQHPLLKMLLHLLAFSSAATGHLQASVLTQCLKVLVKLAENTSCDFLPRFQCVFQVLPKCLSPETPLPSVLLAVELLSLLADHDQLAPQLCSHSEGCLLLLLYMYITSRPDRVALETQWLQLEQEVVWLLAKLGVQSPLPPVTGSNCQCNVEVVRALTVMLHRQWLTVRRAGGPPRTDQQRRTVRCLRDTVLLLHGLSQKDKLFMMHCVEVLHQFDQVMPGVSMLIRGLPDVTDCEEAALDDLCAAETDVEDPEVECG

Amino acid sequences for entries named in this document (tags omitted). Residues count along the entry.
UniProt Q13535, residues 1-400: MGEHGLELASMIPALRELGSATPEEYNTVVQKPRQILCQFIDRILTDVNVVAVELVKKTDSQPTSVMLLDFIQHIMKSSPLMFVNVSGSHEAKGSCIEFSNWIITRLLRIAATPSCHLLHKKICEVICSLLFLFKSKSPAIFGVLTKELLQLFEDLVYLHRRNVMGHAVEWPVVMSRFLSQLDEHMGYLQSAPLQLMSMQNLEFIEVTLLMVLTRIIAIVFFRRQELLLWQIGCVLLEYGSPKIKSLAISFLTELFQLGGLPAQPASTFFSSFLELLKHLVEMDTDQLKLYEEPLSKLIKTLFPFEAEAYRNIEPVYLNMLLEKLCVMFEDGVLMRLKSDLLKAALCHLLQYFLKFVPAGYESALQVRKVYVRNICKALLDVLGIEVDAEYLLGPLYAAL
UniProt Q68E01: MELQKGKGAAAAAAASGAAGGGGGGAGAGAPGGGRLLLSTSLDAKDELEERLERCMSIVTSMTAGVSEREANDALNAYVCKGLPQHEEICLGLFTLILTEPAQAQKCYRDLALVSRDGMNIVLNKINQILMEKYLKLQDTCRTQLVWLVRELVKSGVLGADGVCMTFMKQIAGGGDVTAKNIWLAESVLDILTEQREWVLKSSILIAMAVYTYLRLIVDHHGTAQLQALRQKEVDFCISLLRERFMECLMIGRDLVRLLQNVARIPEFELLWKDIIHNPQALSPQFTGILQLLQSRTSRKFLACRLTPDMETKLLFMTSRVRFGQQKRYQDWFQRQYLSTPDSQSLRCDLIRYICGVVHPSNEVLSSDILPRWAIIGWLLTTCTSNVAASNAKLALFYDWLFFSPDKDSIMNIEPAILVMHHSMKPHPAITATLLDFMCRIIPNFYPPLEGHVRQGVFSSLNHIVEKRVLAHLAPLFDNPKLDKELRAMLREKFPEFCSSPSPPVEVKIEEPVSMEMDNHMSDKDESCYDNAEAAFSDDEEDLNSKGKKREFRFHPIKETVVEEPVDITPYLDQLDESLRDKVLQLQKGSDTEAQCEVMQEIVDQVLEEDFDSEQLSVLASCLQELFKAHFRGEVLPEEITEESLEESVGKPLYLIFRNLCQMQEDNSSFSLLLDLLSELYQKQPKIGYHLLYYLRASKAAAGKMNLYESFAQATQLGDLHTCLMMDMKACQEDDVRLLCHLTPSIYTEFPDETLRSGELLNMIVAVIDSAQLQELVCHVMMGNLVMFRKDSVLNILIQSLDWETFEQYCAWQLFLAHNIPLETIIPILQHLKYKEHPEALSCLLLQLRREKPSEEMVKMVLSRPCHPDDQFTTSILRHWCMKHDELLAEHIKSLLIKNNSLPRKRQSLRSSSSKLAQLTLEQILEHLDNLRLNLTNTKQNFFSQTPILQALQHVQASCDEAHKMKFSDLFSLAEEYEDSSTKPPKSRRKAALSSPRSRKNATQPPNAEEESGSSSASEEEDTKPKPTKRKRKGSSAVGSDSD
UniProt Q9BQ15: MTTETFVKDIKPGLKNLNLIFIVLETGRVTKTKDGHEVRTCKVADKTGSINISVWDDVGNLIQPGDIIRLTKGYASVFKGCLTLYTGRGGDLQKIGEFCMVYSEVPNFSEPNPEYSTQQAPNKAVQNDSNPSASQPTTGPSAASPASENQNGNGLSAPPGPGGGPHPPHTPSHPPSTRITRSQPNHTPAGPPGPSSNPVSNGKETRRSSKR

Myc-INTS3 (human) [3] = molecular target: Myc-INTS3 (human) (UniProt Q68E01); assay: co-IP; tagged proteins individually expressed in 293T, immunoprecipitated with anti-Myc or anti-HA antibodies, eluted with Myc or HA peptides; eluates immunoblotted for endogenous RPA70 and RPA32
[4] = molecular target: Myc-hSSB1 (human single-stranded DNA-binding protein 1) (human) (UniProt Q9BQ15); assay: as above
Myc-INTS3 (human) [5] = molecular target: Myc-INTS3 (human) (UniProt Q68E01); assay: co-IP; 293T cells co-transfected with HA- and Myc-tagged proteins, lysed in NETN buffer (150 mM NaCl, 2 mM EDTA, 50 mM Tris-Cl, 0.2% NP-40); immunoprecipitation with HA antibody (Figure 5A, B) or Myc antibody (Figure 5C, D) on protein A sepharose, immunoblot of the other tag

Molecule: Myc-INTS3 (from UniProt Q68E01 1-1043)
- binding [1]: binds
- binding [2]: binds

Molecule: HA-ATR (1-400 aa), the ATRIP interacting domain of ATR (from UniProt Q13535 1-400) (domain or fragment)
- binding (Myc-INTS3 (human) [5]): binds

B1: HA-ATRIP (ATR-interacting protein) (protein, UniProt Q8WXE1 1-791)
chain: T1 sequence
- binding (Myc-INTS3 (human) [5]): binds

Further lines, results first:

- binding [1]: binds
- binding [2]: binds
Molecule: Myc-hSSB1 (human single-stranded DNA-binding protein 1) (from UniProt Q9BQ15 1-211)

- binding (Myc-INTS3 (human) [3]): no binding
- binding [4]: no binding
Molecule: Replication protein A (RPA) complex, endogenous (from UniProt P27694 1-616; P15927 1-270; P35244 1-121)
